# In the supplement of paper PMC8326762, “A Small Molecule Inhibitor of Pex3–Pex19 Interaction Disrupts Glycosome Biogenesis and Causes Lethality in Trypanosoma brucei” (Frontiers in Cell and Developmental Biology, 2021):
# Where a name gives a salt, the structure may show the parent alone. The list shows a part of the results. The data scatter; read single values as rough.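 Yeast growth was read as optical density at 600 nm. The two-hybrid strains grew without histidine, so growth needed the Pex3–Pex19 binding; a compound counted as trypanosome-selective if it cut growth of the trypanosome-pair strain by more than 65% and the human-pair strain by less than 65%.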
# Tested on: Saccharomyces cerevisiae HF7c pdr5Δ
# Assay: general growth inhibition of yeast HF7c pdr5Δ in -Leu -Trp medium, relative to DMSO; higher = stronger general growth inhibition
# Conditions: 100 µM; 24 h
row,Compound,general growth inhibition
1,O=c1[nH]cc(F)c(=O)[nH]1 [5-Fluorouracil],45.3%
2,COc1cccc(C(=O)NCCN2CCN(c3ccc(Cl)cc3)CC2)c1,36.8%
3,NC[C@@H]1O[C@H](c2ccccc2)Cc2c1ccc(O)c2O,54.6%
4,CC#CCOC(=O)c1c(C)nc2sc3c(c2c1N)CCC(O)C3 (stereo not drawn),39.8%
5,"CN(C)CCC(c1ccc(Cl)cc1)c1ccccn1 (single isomer, unassigned; (+)) [(+)-Chlorpheniramine maleate]",48.9%
6,C[C@H](CS)C(=O)N1CCC[C@H]1C(=O)O [Captopril],32.3%
7,"O=C(O)CCC(C(=O)O)N1C(=O)c2ccccc2C1=O [L-Glutamic acid, N-phthaloyl-]",10.3%
8,COc1cc(Nc2c(C#N)cnc3cc(OCCCN4CCN(C)CC4)c(OC)cc23)c(Cl)cc1Cl [Bosutinib],35.8%
9,CN1[C@@H]2CC[C@H]1CC(OC(=O)c1c[nH]c3ccccc13)C2 (stereo partly drawn) [3-Tropanyl-indole-3-carboxylate hydrochloride],44.4%
10,COc1cc2c(cc1OC)-c1c/c(=N\c3c(C)cc(C)cc3C)n(C)c(=O)n1CC2 [Trequinsin hydrochloride],67.3%
11,NCCCCCC(=O)O [6-Aminohexanoic acid],19.7%
12,O=C(O)CN(CCN(CC(=O)O)CC(=O)O)CCN(CC(=O)O)CC(=O)O [Diethylenetriaminepentaacetic acid],46.3%
13,Cc1ccc(S(=O)(=O)/C=C/C#N)cc1,91.3%
14,O=C(O)CN(CCOCCOCCN(CC(=O)O)CC(=O)O)CC(=O)O,34.1%
15,NC(C(=O)O)C(O)C(=O)O (racemic) [DL-threo-beta-hydroxyaspartic acid],36.1%
16,COCCOc1cc2ncnc(Cl)c2cc1OCCOC,48.4%
17,COc1ccccc1N1CCN(CCN(C(=O)c2ccc(F)cc2)c2ccccn2)CC1 [p-MPPF dihydrochloride],47.5%
18,c1ccc2c(c1)CC(N1CCN(c3cccc4c3OCCO4)CC1)C2,6.32%
19,Nc1cc2c(ncn2CCOCP(=O)(O)O)c(=O)[nH]1 [PMEG hydrate],40.4%
20,O=C1Cc2c([nH]c3ccc(Br)cc23)-c2ccccc2N1 [Kenpaullone],3.08%

row,Compound,general growth inhibition
1,CC(=O)Oc1cc(C(F)(F)F)ccc1C(=O)O [Triflusal],54.3%
2,CN1[C@@H]2CC[C@H]1C[C@@H](OC(c1ccccc1)c1ccccc1)C2 [Benztropine mesylate],40.5%
3,O=C(O)CCc1ccc(NCc2cccc(Oc3ccccc3)c2)cc1,84.2%
4,COC(=O)C1=C(C)NC(C)=C([N+](=O)[O-])C1c1ccccc1C(F)(F)F (racemic),65.4%
5,O=C(/C=C/c1ccc(O)cc1)c1ccc(O)cc1O [Isoliquiritigenin],36.8%
6,O=C(c1ccc(OCCCc2c[nH]cn2)cc1)C1CC1 [Ciproxifan hydrochloride],35.4%
7,CC(=O)OCC(=O)[C@@]1(O)CC[C@H]2[C@@H]3CCC4=CC(=O)CC[C@]4(C)[C@H]3C(=O)C[C@@]21C [Cortisone 21-acetate],40%
8,N[C@H](C(=O)O)[C@H](O)c1ccc(O)c(O)c1,56.7%
9,S=C(Nc1ccccc1)Nc1nccs1 [1-Phenyl-3-(2-thiazolyl)-2-thiourea],56.3%
10,CCOC(=O)[C@@H](N)Cc1ccc(O)c(O)c1 [L-Dopa ethyl ester],30.4%
11,CC(C)NCC(O)COc1ccc(CC(N)=O)cc1 (racemic) [(±)-Atenolol],35.7%
12,NC(=O)c1cn(Cc2c(F)cccc2F)nn1 [Rufinamide],32.4%
13,CC1=C(/C=C/C(C)=C/C=C/C(C)=C/C=C/C=C(C)/C=C/C=C(C)/C=C/C2=C(C)C(=O)[C@@H](O)CC2(C)C)C(C)(C)C[C@H](O)C1=O [Astaxanthin],35.4%
14,O=[N+]([O-])c1cccc2c(Br)[nH]nc12 [3-Bromo-7-nitroindazole],55.6%
15,CC(=O)[C@@]1(O)CC[C@H]2[C@@H]3CCC4=CC(=O)CC[C@]4(C)[C@H]3CC[C@@]21C [17alpha-hydroxyprogesterone],42.6%
16,CCOC(=O)C1=C(C)NC(C)=C(C(=O)OC)C1c1cccc([N+](=O)[O-])c1 (stereo not drawn) [Nitrendipine],84.6%
17,Nc1nc2ccc(Cl)cc2n2c(-c3ccccc3)nnc12,55.6%
18,CC(=O)SCC[N+](C)(C)C [Acetylthiocholine chloride],48.6%
19,Nc1ncnc2c1ncn2C1CCCC1 [9-cyclopentyladenine],42.6%

# Tested on: human PEX3-PEX19 interaction (yeast two-hybrid)
# Assay: growth inhibition of yeast two-hybrid strain reporting HsPex3-HsPex19 interaction, relative to DMSO; higher = stronger inhibition of human Pex3-Pex19 interaction / growth
# Conditions: 100 µM; 24 h; 3-aminotriazole 10 mM
row,Compound,growth inhibition
1,O=c1[nH]cc(F)c(=O)[nH]1 [5-Fluorouracil],40.7%
2,COc1cccc(C(=O)NCCN2CCN(c3ccc(Cl)cc3)CC2)c1,32.9%
3,NC[C@@H]1O[C@H](c2ccccc2)Cc2c1ccc(O)c2O,46.7%
4,CC#CCOC(=O)c1c(C)nc2sc3c(c2c1N)CCC(O)C3 (stereo not drawn),35.3%
5,"CN(C)CCC(c1ccc(Cl)cc1)c1ccccn1 (single isomer, unassigned; (+)) [(+)-Chlorpheniramine maleate]",38%
6,C[C@H](CS)C(=O)N1CCC[C@H]1C(=O)O [Captopril],35.5%
7,"O=C(O)CCC(C(=O)O)N1C(=O)c2ccccc2C1=O [L-Glutamic acid, N-phthaloyl-]",7.15%
8,COc1cc(Nc2c(C#N)cnc3cc(OCCCN4CCN(C)CC4)c(OC)cc23)c(Cl)cc1Cl [Bosutinib],18.2%
9,CN1[C@@H]2CC[C@H]1CC(OC(=O)c1c[nH]c3ccccc13)C2 (stereo partly drawn) [3-Tropanyl-indole-3-carboxylate hydrochloride],40.3%
10,COc1cc2c(cc1OC)-c1c/c(=N\c3c(C)cc(C)cc3C)n(C)c(=O)n1CC2 [Trequinsin hydrochloride],51.1%
11,NCCCCCC(=O)O [6-Aminohexanoic acid],11.4%
12,O=C(O)CN(CCN(CC(=O)O)CC(=O)O)CCN(CC(=O)O)CC(=O)O [Diethylenetriaminepentaacetic acid],38.3%
13,Cc1ccc(S(=O)(=O)/C=C/C#N)cc1,88.3%
14,O=C(O)CN(CCOCCOCCN(CC(=O)O)CC(=O)O)CC(=O)O,32.6%
15,NC(C(=O)O)C(O)C(=O)O (racemic) [DL-threo-beta-hydroxyaspartic acid],38.6%
16,COCCOc1cc2ncnc(Cl)c2cc1OCCOC,35.7%
17,COc1ccccc1N1CCN(CCN(C(=O)c2ccc(F)cc2)c2ccccn2)CC1 [p-MPPF dihydrochloride],43.9%
18,c1ccc2c(c1)CC(N1CCN(c3cccc4c3OCCO4)CC1)C2,3.49%
19,Nc1cc2c(ncn2CCOCP(=O)(O)O)c(=O)[nH]1 [PMEG hydrate],38.9%
20,O=C1Cc2c([nH]c3ccc(Br)cc23)-c2ccccc2N1 [Kenpaullone],-8.1%

row,Compound,growth inhibition
1,CC(=O)Oc1cc(C(F)(F)F)ccc1C(=O)O [Triflusal],47.1%
2,CN1[C@@H]2CC[C@H]1C[C@@H](OC(c1ccccc1)c1ccccc1)C2 [Benztropine mesylate],41.4%
3,O=C(O)CCc1ccc(NCc2cccc(Oc3ccccc3)c2)cc1,79.2%
4,COC(=O)C1=C(C)NC(C)=C([N+](=O)[O-])C1c1ccccc1C(F)(F)F (racemic),47.7%
5,O=C(/C=C/c1ccc(O)cc1)c1ccc(O)cc1O [Isoliquiritigenin],16.8%
6,O=C(c1ccc(OCCCc2c[nH]cn2)cc1)C1CC1 [Ciproxifan hydrochloride],39.5%
7,CC(=O)OCC(=O)[C@@]1(O)CC[C@H]2[C@@H]3CCC4=CC(=O)CC[C@]4(C)[C@H]3C(=O)C[C@@]21C [Cortisone 21-acetate],43.8%
8,N[C@H](C(=O)O)[C@H](O)c1ccc(O)c(O)c1,42%
9,S=C(Nc1ccccc1)Nc1nccs1 [1-Phenyl-3-(2-thiazolyl)-2-thiourea],42.4%
10,CCOC(=O)[C@@H](N)Cc1ccc(O)c(O)c1 [L-Dopa ethyl ester],45.3%
11,CC(C)NCC(O)COc1ccc(CC(N)=O)cc1 (racemic) [(±)-Atenolol],40.7%
12,NC(=O)c1cn(Cc2c(F)cccc2F)nn1 [Rufinamide],39.2%
13,CC1=C(/C=C/C(C)=C/C=C/C(C)=C/C=C/C=C(C)/C=C/C=C(C)/C=C/C2=C(C)C(=O)[C@@H](O)CC2(C)C)C(C)(C)C[C@H](O)C1=O [Astaxanthin],36.1%
14,O=[N+]([O-])c1cccc2c(Br)[nH]nc12 [3-Bromo-7-nitroindazole],48.1%
15,CC(=O)[C@@]1(O)CC[C@H]2[C@@H]3CCC4=CC(=O)CC[C@]4(C)[C@H]3CC[C@@]21C [17alpha-hydroxyprogesterone],32.6%
16,CCOC(=O)C1=C(C)NC(C)=C(C(=O)OC)C1c1cccc([N+](=O)[O-])c1 (stereo not drawn) [Nitrendipine],81%
17,Nc1nc2ccc(Cl)cc2n2c(-c3ccccc3)nnc12,45%
18,CC(=O)SCC[N+](C)(C)C [Acetylthiocholine chloride],50.4%
19,Nc1ncnc2c1ncn2C1CCCC1 [9-cyclopentyladenine],52.4%

# Retrieved one by one from the list above:
row,Compound,growth inhibition
11,CC(C)NCC(O)COc1ccc(CC(N)=O)cc1 (racemic) [(±)-Atenolol],40.7%
4,COC(=O)C1=C(C)NC(C)=C([N+](=O)[O-])C1c1ccccc1C(F)(F)F (racemic),47.7%
